This note sets out measurements from US20020176853A1.

By UniProt entry, the sequences of proteins in these tests, tags left out. Where a name states a change or a piece, a line headed by the entry shows the natural chain unless it says otherwise.
UniProt P29466: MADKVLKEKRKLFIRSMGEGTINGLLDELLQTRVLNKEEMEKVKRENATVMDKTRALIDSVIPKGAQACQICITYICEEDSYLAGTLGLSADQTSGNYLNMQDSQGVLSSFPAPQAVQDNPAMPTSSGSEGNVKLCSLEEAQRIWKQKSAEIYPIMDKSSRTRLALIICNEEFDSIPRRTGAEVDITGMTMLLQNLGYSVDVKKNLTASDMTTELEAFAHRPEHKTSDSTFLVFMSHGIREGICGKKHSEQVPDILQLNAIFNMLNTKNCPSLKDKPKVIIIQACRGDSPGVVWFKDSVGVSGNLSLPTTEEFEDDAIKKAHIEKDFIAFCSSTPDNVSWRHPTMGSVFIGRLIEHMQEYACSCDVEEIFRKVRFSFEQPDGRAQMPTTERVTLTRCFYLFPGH

This test addresses pro-caspase-1 (C285A mutant) (human) (UniProt P29466). Kind of test: co-immunoprecipitation of Myc- and HA-tagged pro-caspase-1 (C285A) from 293T lysates.

Results are given in words; binding and its absence hold for the method and conditions named. In cells and extracts the contact can be indirect. Some binding calls cover weakened binding; strength is not graded here.

For the substance “pro-caspase-1 (C285A mutant) (from UniProt P29466 1-404) (enzyme)”, the binding entry is given as “binds”.
